This passage reports binding result and binding signal (fold weaker than in K+) results from paper PMC9945446.

Protein sequences, listed by entry. Tags and fused reporters are not part of them. Lines headed by an entry give the natural chain unless they say otherwise; changes in a name come on top.
UniProt P26358: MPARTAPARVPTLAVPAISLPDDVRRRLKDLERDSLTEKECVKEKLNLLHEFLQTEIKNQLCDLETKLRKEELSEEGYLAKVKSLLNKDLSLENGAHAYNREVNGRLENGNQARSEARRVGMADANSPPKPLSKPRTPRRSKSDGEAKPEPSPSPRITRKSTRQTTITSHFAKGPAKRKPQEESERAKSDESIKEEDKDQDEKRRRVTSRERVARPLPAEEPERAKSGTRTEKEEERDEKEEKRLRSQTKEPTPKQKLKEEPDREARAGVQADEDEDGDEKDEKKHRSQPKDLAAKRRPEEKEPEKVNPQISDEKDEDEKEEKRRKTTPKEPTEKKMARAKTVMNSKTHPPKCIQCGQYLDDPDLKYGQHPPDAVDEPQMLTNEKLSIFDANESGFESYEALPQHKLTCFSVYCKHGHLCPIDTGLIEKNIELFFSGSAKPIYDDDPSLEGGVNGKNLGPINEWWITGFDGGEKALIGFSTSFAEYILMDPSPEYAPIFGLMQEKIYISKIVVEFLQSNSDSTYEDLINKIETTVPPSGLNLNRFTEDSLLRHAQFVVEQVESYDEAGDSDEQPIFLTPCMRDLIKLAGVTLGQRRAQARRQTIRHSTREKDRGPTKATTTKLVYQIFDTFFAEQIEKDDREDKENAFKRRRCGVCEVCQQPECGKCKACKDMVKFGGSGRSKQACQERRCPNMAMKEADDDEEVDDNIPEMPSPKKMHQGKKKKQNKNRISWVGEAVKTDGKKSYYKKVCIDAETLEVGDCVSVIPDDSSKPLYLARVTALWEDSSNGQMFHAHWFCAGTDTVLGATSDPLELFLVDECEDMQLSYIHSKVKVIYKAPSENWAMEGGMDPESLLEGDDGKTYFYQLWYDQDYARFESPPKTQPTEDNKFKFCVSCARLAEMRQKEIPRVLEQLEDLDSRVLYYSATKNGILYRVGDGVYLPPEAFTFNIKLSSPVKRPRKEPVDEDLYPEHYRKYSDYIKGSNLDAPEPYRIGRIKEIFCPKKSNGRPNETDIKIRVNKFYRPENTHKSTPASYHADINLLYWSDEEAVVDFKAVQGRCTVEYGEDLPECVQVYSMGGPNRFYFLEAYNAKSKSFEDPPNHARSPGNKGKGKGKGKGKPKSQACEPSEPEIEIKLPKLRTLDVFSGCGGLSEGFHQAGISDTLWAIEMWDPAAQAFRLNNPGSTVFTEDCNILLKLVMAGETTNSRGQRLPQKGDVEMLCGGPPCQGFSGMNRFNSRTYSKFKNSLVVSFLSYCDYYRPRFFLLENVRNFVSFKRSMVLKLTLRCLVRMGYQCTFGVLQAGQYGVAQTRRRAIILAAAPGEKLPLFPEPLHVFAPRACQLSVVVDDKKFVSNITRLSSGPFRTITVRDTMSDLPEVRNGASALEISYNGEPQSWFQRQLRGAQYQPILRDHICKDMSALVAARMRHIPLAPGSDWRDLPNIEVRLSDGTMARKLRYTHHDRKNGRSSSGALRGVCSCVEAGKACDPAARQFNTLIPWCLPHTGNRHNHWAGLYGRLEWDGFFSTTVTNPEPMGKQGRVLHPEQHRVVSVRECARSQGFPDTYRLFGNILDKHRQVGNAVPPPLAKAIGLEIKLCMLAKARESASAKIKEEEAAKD

The data set concerns the target DNMT1 (human) (UniProt P26358). Kind of data set: EMSA. The conditions noted are these: 50 mM Tris-HCl pH 7.5, 100 mM KCl (or LiCl), 2.5 mM MgCl2, 0.1 mM ZnCl2, 2 mM BME, 0.05% NP40, 5% glycerol, 0.1 mg/mL BSA, 0.1 mg/mL yeast tRNA, 30 C 1 h, recombinant protein, residues 1-1616, protein details: MBP tag cleaved with PreScission protease, label: 5' 32P; for binding signal (fold weaker than in K+): 100 mM LiCl (unfolded). On the technique in general: Mobility shift assays separate free from complexed probe on a gel.

A weaker result is weaker than the reference pair of the same experiment. The exact form of at least one protein or probe is not confirmed. Whether high values mean tight binding is not given here for every scale. Bounds are passed on as bounds.

“GAGAGAGAGAGAGAGAGAGAGAGAGAGAGAGAGAGAGAGA [(GA)20]”: the binding result (100 mM KCl, somewhat weaker than (GGAA)10) is listed as “binds more weakly”.

As to “GUGUGUGUGUGUGUGUGUGUGUGUGUGUGUGUGUGUGUGU [(GU)20]”, the binding signal (fold weaker than in K+) was found to be 8.

On to “GUGUGUGUGUGUGUGUGUGUGUGUGUGUGUGUGUGUGUGUGUGUGUGUGUGUGUGUGUGU [(GU)30]”, for which the binding signal (fold weaker than in K+) was > 50.
